Results: article doi:10.1101/2023.02.28.530536
No constants are given. Whether binding was seen depends on the method and setting. In cells and extracts the contact can be indirect. Some binding calls cover weakened binding; strength is not graded here. Tags and fused reporters may be left off the sequences shown.

Sequences of proteins named here, by UniProt entry; tags and fusion partners are left off.
UniProt Q38919: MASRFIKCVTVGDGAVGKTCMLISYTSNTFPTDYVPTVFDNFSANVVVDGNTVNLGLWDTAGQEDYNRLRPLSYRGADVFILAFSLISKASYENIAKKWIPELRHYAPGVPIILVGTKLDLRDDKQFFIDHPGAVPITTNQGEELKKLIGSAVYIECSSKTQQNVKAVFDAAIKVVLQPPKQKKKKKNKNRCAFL
UniProt Q38912: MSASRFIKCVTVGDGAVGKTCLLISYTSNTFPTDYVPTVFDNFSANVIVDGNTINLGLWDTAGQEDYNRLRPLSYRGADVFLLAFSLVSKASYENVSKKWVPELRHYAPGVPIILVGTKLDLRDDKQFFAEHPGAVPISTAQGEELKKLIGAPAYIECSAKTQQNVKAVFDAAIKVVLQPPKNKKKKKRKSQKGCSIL

Biological target: T1, MBP-RIC1 (Arabidopsis) (UniProt F4IVV0)
T1 sequence: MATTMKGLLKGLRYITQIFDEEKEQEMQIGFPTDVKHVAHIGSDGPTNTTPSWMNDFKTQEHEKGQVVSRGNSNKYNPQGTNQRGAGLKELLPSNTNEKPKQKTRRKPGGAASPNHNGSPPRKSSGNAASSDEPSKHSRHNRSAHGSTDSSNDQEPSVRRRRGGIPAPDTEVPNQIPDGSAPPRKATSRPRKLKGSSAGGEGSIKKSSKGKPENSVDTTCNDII
Assay: pull-down

Row | binding | Substance
1 | binds | GFP-ROP2 (from UniProt Q38919 1-195)
2 | binds | GFP-ROP6 (from UniProt Q38912 1-198)
